Measured values from patent US8349851B2, “JAK kinase modulating compounds and methods of use thereof” (Ambit Biosciences Corp., priority 2009, dated 2013).

system: 321 distinct kinases; assay: Kinase selectivity score from competition binding panel; settings: kinases with inhibition of 90% or greater divided by 321 distinct kinases tested

Row | Compound | S Score (at 10 μM)
1 | Cc1cc(Nc2nc(C(=O)c3ccc(F)cc3)nc3cc(O)ccc23)n[nH]1 [Example 37, (4-fluorophenyl)(7-hydroxy-4-(5-methyl-1H-pyrazol-3-ylamino)quinazolin-2-yl)methanone] | A (A ≦ 0.3)
2 | Cc1cc(Nc2nc(C(O)c3ccc(F)cc3)nc3cc(OC4CCNCC4)ccc23)n[nH]1 (centres unmarked) [Example 41, (4-fluorophenyl)(4-(5-methyl-1H-pyrazol-3-ylamino)-7-(piperidin-4-yloxy)quinazolin-2-yl)methanol] | D (D > 0.5)
3 | Cc1cc(Nc2nc(C(F)(F)c3ccc(F)cc3)nc3cc(CO)ccc23)n[nH]1 [Example 49, (2-(difluoro(4-fluorophenyl)methyl)-4-(5-methyl-1H-pyrazol-3-ylamino)quinazolin-7-yl)methanol] | D (D > 0.5)
4 | Cc1cc(Nc2nc(C(F)(F)c3ccc(F)cc3)nc3cc(CS(C)(=O)=O)ccc23)n[nH]1 [Example 50, 2-(difluoro(4-fluorophenyl)methyl)-N-(5-methyl-1H-pyrazol-3-yl)-7-(methylsulfonylmethyl)quinazolin-4-amine] | C (0.4 < C ≦ 0.5)
5 | CCOCc1ccc2c(Nc3cc(C)[nH]n3)nc(C(F)(F)c3ccc(F)cc3)nc2c1 [Example 51, 2-(Difluoro(4-fluorophenyl)methyl)-7-(ethoxymethyl)-N-(5-methyl-1H-pyrazol-3-yl)quinazolin-4-amine] | B (0.3 < B ≦ 0.4)
6 | Cc1cc(Nc2nc(C(=O)c3ccc(F)cc3)nc3ccc(F)cc23)n[nH]1 [Example 53, (6-fluoro-4-(5-methyl-1H-pyrazol-3-ylamino)quinazolin-2-yl)(4-fluorophenyl)methanone] | A (A ≦ 0.3)
7 | Cc1cc(Nc2nc(C(=O)c3ccc(F)cc3)nc3cc(Br)ccc23)n[nH]1 [Example 56, (7-bromo-4-(5-methyl-1H-pyrazol-3-ylamino)quinazolin-2-yl)(4-fluorophenyl)methanone] | A (A ≦ 0.3)
8 | Cc1cc(Nc2nc(C(O)c3ccc(F)cc3)nc3cc(Br)ccc23)n[nH]1 (centres unmarked) [Example 57, (7-bromo-4-(5-methyl-1H-pyrazol-3-ylamino)quinazolin-2-yl)(4-fluorophenyl)methanol] | A (A ≦ 0.3)
9 | Cc1cc(Nc2nc(C3(c4ccc(F)cc4)OCCO3)nc3ccccc23)n[nH]1 [Example 59, 2-(2-(4-fluorophenyl)-1,3-dioxolan-2-yl)-N-(5-methyl-1H-pyrazol-3-yl)quinazolin-4-amine] | B (0.3 < B ≦ 0.4)
10 | Cc1cc(Nc2nc(C(=O)c3ccc(F)cc3)nc3c(F)cccc23)n[nH]1 [Example 60, (8-fluoro-4-(5-methyl-1H-pyrazol-3-ylamino)quinazolin-2-yl)(4-fluorophenyl)methanone] | A (A ≦ 0.3)
11 | COc1ccccc1C(=O)c1nc(Nc2cc(C)[nH]n2)c2ccccc2n1 [Example 62, (2-methoxyphenyl)(4-(5-methyl-1H-pyrazol-3-ylamino)quinazolin-2-yl)methanone] | A (A ≦ 0.3)
12 | Cc1cc(Nc2nc(C(O)c3cccc(F)c3)nc3ccccc23)n[nH]1 (centres unmarked) [Example 64, (3-fluorophenyl)(4-(5-methyl-1H-pyrazol-3-ylamino)quinazolin-2-yl)methanol] | A (A ≦ 0.3)
13 | Cc1cc(Nc2nc(C(NC=O)c3ccc(F)cc3)nc3ccccc23)n[nH]1 (centres unmarked) [Example 65, N-((4-fluorophenyl)(4-(5-methyl-1H-pyrazol-3-ylamino)quinazolin-2-yl)methyl)formamide] | A (A ≦ 0.3)
14 | Cc1cc(Nc2nc(C(O)c3ccc(F)c(Cl)c3)nc3ccccc23)n[nH]1 (centres unmarked) [Example 67, (3-chloro-4-fluorophenyl)(4-(5-methyl-1H-pyrazol-3-ylamino)quinazolin-2-yl)methanol] | B (0.3 < B ≦ 0.4)
15 | Cc1cc(Nc2nc(C(CC#N)c3ccc(F)cc3)nc3ccccc23)n[nH]1 (centres unmarked) [Example 68, 3-(4-fluorophenyl)-3-(4-(5-methyl-1H-pyrazol-3-ylamino)quinazolin-2-yl)propanenitrile] | A (A ≦ 0.3)
16 | Cc1cc(Nc2nc(C(NC3CC3)c3ccc(F)cc3)nc3ccccc23)n[nH]1 (centres unmarked) [Example 69, 2-((cyclopropylamino)(4-fluorophenyl)methyl)-N-(5-methyl-1H-pyrazol-3-yl)quinazolin-4-amine] | A (A ≦ 0.3)
17 | Cc1cc(Nc2nc(C(CS(C)(=O)=O)c3ccc(F)cc3)nc3ccccc23)n[nH]1 (centres unmarked) [Example 70, 2-(1-(4-fluorophenyl)-2-(methylsulfonyl)ethyl)-N-(5-methyl-1H-pyrazol-3-yl)quinazolin-4-amine] | A (A ≦ 0.3)
18 | Cc1cc(Nc2nc(C(CCN)c3ccc(F)cc3)nc3ccccc23)n[nH]1 (centres unmarked) [Example 71, 2-(3-amino-1-(4-fluorophenyl)propyl)-N-(5-methyl-1H-pyrazol-3-yl)quinazolin-4-amine] | A (A ≦ 0.3)
19 | Cc1cc(Nc2nc(C(O)(c3ccc(F)cc3)c3ccc(F)cc3)nc3ccccc23)n[nH]1 [bis-(4-fluoro-phenyl)-[4-(5-methyl-1H-pyrazol-3-ylamino)-quinazolin-2-yl]-methanol] | A (A ≦ 0.3)
20 | (4-(1H-pyrazol-3-ylamino)quinazolin-2-yl)bis(4-fluorophenyl)methanol [Example 48] | A (A ≦ 0.3)
